Values from PubChem BioAssay AID1224828 (NIAID, 2016)

- Test: 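Regulators linking TLR4 signalling to p65 nuclear translocation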 (primary screen)
- Cells: mouse RAW264.7 G9 macrophage reporter cells (GFP-p65, Tnf promoter-mCherry)
- Reagents: siRNA pool against mouse genes, 100 nM
- Time to read-out: 2 days siRNA transfection, then 40 min LPS before fixation
- Challenge: LPS (Salmonella minnesota R595) at 10 ng/ml
- Read-out: 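Microscopy ratio of nuclear to perinuclear-ring GFP-p65 signal, scaled to the plate median; gene score is the average of two replicate robust z-scores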
- Reading the numbers: p65 translocation robust z-score: higher = more nuclear NF-kappaB p65 after LPS than the plate median; nuclear/cytoplasmic p65 ratio: higher = more nuclear NF-kappaB p65
- Active means: 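Called active when z exceeds 3.3 or falls under -1.56 (median of Tlr4 controls), giving activity score of at least 50; no calls for control wells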
- Calls: active = hit (p65 shift raised or lowered); inactive = no clear change
The deposit covers about 17,000 reagents; below is an unselected part. 762 of them (4.5%) were called active. 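Active calls include both raised and lowered p65 entry, mostly lowered; wells with fewer than 50 cells lack a z-score.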 The raw values are shown without normalisation. A number with no mark means an inactive call. The numbers tell different reagents against one gene apart.

The opening 2 records, to show the layout:
no.	target	reagent no.	p65 translocation robust z-score	nuclear/cytoplasmic p65 ratio, rep 1	nuclear/cytoplasmic p65 ratio, rep 2	low cell count flag
1	Matr3 (matrin 3)	1	-0.6	1.31	1.31	enough cells to score
2	Figla (folliculogenesis specific basic helix-loop-helix)	1	-1.05	1.39	1.36	enough cells to score

The listing, from the start:
no.	target	reagent no.	p65 translocation robust z-score	nuclear/cytoplasmic p65 ratio, rep 1	nuclear/cytoplasmic p65 ratio, rep 2	low cell count flag
1	Matr3 (matrin 3)	1	-0.6	1.31	1.31	enough cells to score
2	Figla (folliculogenesis specific basic helix-loop-helix)	1	-1.05	1.39	1.36	enough cells to score
3	Or8s2 (olfactory receptor family 8 subfamily S member 2)	1		1.37	1.49	fewer than 50 cells per well; well left out of scoring
4	Chkb (choline kinase beta)	1	-0.8	1.58	1.27	enough cells to score
5	Tslp (thymic stromal lymphopoietin)	1	2.68	1.51	1.53	enough cells to score
6	Or5ar1 (olfactory receptor family 5 subfamily AR member 1)	1	-2.75 (active)	1.3	1.12	enough cells to score
7	Coro1b (coronin, actin binding protein 1B)	1	-1.14	1.44	1.56	enough cells to score
8	Mcph1 (microcephaly, primary autosomal recessive 1)	1	1.37	1.67	1.55	enough cells to score
9	Fam76a (family with sequence similarity 76, member A)	1	-2.13 (active)	1.18	1.58	enough cells to score
10	Fam107b (family with sequence similarity 107, member B)	1		1.3	1.38	fewer than 50 cells per well; well left out of scoring
11	Rptor (regulatory associated protein of MTOR, complex 1)	1	0.52	1.71	1.67	enough cells to score
12	Gfod2 (glucose-fructose oxidoreductase domain containing 2)	1		1.43	1.07	fewer than 50 cells per well; well left out of scoring
13	Lmbr1 (limb region 1)	1	-1.43	1.32	1.28	enough cells to score
14	Vwc2l (von Willebrand factor C domain-containing protein 2-like)	1	0.03	1.42	1.49	enough cells to score
15	B3galt6	1	0.95	1.75	1.64	enough cells to score
16	Usp29 (ubiquitin specific peptidase 29)	1	0.95	2.09	1.33	enough cells to score
17	Defa31 (defensin, alpha, 31)	1	2.81	1.84	1.72	enough cells to score
18	Spag4 (sperm associated antigen 4)	1	-0.67	1.31	1.15	enough cells to score
19	Gpank1 (G patch domain and ankyrin repeats 1)	1	0.6	1.63	1.99	enough cells to score
20	Morc2b (microrchidia 2B)	1		1.32	1	fewer than 50 cells per well; well left out of scoring
21	Pitpnm3 (PITPNM family member 3)	1	0.99	1.83	1.51	enough cells to score
22	Zfp385a (zinc finger protein 385A)	1	-0.48	1.36	1.19	enough cells to score
23	Naprt (nicotinate phosphoribosyltransferase)	1	0.54	1.47	1.65	enough cells to score
24	Ap4b1 (adaptor-related protein complex AP-4, beta 1)	1	-0.98	1.41	1.42	enough cells to score
25	Ap4b1 (adaptor-related protein complex AP-4, beta 1)	2		1.43	1.35	fewer than 50 cells per well; well left out of scoring
26	Eif3g (eukaryotic translation initiation factor 3, subunit G)	1	-0.6	1.43	1.25	enough cells to score
27	Mterf1b (mitochondrial transcription termination factor 1b)	1	-0.53	1.57	1.5	enough cells to score
28	Arhgef16 (Rho guanine nucleotide exchange factor 16)	1	-0.75	1.46	1.55	enough cells to score
29	Hbq1a (hemoglobin, theta 1A)	1	-0.56	1.49	1.56	enough cells to score
30	Drgx (dorsal root ganglia homeobox)	1	-1.04	1.18	1.16	enough cells to score
31	Nup88 (nucleoporin 88)	1	1.11	1.96	1.63	enough cells to score
32	Hprt1 (hypoxanthine phosphoribosyltransferase 1)	1	0.77	1.45	1.56	enough cells to score
33	Xrcc5 (X-ray repair complementing 5)	1	-1.38	1.34	1.29	enough cells to score
34	Or56a5 (olfactory receptor family 56 subfamily A member 5)	1	-0.23	1.32	1.24	enough cells to score
35	Tgm6 (transglutaminase 6)	1	1.09	1.53	1.66	enough cells to score
36	Smn1 (survival motor neuron 1)	1	0.58	1.51	1.76	enough cells to score
37	Slfn2 (schlafen 2)	1		0	1.14	fewer than 50 cells per well; well left out of scoring
38	Serinc1 (serine incorporator 1)	1		1.56	1.26	fewer than 50 cells per well; well left out of scoring
39	Bmp1 (bone morphogenetic protein 1)	1	2.16	1.96	1.92	enough cells to score
40	Tspan3 (tetraspanin 3)	1		1.35	1.11	fewer than 50 cells per well; well left out of scoring
